Measurements from the supplement of paper PMC10849652.
The other results are listed elsewhere or left out.

Chains of the proteins cited; added tags and fusions are not shown. Lines headed by an entry give the natural chain unless they say otherwise; changes in a name come on top.
UniProt P11532, whole entry, looked up: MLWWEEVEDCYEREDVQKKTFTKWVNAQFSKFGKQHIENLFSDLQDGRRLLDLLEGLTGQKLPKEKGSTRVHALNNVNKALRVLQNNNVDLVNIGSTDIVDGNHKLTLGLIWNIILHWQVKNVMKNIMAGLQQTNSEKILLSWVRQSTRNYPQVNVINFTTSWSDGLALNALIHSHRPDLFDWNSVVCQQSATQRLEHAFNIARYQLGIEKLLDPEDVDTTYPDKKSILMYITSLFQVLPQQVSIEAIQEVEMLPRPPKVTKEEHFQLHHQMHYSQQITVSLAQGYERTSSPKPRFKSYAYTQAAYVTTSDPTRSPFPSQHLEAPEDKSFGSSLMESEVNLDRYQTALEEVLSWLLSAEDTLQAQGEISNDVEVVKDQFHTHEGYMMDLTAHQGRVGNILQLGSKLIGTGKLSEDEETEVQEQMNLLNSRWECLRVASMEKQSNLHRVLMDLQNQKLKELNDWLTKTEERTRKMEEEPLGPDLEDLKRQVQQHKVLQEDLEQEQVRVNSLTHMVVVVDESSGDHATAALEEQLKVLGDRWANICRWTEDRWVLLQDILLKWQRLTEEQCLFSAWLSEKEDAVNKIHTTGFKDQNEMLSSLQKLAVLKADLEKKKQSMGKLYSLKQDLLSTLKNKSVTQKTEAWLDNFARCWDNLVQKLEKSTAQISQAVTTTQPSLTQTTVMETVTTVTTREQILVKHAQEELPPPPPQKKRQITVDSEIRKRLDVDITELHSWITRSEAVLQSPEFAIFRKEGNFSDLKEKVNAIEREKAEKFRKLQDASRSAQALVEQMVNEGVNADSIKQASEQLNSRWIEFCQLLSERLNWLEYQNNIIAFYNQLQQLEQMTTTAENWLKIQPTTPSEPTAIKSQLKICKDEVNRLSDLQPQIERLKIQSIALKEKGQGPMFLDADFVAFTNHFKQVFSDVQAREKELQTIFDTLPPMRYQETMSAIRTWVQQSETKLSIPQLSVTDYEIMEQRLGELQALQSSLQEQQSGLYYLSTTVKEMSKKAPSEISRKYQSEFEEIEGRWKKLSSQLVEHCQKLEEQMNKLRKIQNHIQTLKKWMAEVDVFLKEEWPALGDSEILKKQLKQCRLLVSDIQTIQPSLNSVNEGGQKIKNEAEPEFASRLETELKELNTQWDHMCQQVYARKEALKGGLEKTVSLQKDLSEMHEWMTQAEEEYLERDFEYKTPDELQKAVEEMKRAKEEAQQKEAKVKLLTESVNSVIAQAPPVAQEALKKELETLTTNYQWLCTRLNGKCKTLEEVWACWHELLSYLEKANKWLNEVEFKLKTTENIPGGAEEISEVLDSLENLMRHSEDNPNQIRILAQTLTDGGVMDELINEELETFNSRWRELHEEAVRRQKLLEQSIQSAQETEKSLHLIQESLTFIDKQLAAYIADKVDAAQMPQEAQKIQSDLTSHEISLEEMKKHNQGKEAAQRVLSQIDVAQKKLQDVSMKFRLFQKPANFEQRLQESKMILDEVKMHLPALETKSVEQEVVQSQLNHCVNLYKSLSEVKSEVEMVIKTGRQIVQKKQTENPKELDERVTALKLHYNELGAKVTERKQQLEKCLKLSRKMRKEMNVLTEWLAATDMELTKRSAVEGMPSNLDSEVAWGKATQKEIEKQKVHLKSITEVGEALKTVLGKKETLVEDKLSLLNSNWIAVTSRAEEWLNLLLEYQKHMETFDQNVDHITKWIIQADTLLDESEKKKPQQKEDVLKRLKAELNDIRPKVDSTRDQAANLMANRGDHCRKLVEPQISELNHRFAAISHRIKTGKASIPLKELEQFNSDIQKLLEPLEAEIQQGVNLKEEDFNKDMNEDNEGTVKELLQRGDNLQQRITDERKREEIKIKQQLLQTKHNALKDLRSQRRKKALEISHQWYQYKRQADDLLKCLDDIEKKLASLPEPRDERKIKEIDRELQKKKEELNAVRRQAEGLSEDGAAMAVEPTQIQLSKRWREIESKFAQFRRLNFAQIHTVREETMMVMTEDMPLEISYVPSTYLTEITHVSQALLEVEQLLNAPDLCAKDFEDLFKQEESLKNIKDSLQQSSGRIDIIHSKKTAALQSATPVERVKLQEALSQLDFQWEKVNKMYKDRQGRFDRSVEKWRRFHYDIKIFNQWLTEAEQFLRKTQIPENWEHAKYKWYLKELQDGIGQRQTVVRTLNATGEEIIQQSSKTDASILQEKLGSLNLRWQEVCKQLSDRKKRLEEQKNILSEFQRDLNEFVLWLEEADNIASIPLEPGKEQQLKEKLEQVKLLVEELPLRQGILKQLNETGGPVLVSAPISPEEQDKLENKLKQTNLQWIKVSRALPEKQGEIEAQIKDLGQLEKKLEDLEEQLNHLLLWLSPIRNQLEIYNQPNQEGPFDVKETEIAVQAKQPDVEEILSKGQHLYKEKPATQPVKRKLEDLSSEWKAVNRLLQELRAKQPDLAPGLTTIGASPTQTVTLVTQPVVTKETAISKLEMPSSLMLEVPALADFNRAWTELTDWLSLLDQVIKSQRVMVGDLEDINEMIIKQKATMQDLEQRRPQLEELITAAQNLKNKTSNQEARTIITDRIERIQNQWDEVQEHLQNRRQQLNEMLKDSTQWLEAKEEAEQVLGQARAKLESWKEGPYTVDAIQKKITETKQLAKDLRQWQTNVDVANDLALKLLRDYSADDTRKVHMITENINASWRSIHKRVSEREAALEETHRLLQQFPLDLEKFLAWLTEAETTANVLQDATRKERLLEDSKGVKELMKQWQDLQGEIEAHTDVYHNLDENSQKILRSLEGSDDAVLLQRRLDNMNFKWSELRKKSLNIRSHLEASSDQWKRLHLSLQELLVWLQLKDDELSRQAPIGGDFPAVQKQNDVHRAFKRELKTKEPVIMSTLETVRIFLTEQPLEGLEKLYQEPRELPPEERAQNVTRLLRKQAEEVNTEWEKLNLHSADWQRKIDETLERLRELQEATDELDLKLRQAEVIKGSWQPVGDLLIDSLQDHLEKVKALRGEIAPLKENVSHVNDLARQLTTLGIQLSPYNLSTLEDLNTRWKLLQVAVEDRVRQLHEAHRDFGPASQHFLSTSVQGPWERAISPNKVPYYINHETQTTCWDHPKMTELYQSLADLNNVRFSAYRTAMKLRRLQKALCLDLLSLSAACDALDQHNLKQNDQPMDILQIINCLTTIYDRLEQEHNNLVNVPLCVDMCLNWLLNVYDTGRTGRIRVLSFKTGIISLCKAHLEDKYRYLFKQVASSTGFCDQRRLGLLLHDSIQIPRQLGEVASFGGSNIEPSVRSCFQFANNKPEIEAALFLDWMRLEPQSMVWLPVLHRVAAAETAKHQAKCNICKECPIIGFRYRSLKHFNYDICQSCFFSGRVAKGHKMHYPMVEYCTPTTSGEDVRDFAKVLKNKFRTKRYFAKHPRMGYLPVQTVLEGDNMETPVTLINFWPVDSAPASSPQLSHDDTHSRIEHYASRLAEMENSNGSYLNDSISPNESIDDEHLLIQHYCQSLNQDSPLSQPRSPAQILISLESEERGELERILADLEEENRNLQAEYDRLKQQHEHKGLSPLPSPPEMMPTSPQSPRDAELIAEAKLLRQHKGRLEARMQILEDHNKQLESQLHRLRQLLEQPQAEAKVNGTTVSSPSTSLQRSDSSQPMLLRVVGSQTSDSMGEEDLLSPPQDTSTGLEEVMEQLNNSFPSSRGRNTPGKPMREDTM
UniProt Q96DA6: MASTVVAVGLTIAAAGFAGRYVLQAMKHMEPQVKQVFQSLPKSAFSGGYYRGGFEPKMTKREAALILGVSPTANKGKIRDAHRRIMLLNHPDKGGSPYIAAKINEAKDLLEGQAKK
UniProt Q9NVR5: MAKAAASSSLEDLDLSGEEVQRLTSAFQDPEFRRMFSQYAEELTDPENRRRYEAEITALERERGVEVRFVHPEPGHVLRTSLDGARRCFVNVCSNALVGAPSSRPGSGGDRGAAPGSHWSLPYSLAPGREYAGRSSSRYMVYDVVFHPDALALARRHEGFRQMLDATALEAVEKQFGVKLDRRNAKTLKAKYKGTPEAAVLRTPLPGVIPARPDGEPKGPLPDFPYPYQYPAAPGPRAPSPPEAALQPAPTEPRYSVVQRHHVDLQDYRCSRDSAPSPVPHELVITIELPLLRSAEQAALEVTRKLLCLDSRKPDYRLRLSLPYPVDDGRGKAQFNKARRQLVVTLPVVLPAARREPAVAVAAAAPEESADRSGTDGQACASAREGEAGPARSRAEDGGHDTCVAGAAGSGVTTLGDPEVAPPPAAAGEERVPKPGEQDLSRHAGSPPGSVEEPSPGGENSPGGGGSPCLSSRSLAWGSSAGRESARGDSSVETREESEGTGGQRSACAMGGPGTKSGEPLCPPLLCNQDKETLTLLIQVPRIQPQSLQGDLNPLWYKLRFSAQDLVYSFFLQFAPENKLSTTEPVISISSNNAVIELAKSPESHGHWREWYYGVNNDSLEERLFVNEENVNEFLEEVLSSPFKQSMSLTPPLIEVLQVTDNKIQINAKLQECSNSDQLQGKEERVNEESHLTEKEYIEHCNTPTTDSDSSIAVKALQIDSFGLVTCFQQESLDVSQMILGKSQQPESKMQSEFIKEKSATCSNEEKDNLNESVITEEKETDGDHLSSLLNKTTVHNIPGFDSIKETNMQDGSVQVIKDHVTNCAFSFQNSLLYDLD
UniProt Q9NVM6: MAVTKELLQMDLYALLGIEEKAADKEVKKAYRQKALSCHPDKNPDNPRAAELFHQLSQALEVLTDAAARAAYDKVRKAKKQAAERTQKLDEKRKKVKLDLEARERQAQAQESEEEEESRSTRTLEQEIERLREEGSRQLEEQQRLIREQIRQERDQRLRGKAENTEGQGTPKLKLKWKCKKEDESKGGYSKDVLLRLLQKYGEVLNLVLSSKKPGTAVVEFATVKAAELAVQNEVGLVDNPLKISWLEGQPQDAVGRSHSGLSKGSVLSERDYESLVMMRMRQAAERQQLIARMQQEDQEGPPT
UniProt O76075: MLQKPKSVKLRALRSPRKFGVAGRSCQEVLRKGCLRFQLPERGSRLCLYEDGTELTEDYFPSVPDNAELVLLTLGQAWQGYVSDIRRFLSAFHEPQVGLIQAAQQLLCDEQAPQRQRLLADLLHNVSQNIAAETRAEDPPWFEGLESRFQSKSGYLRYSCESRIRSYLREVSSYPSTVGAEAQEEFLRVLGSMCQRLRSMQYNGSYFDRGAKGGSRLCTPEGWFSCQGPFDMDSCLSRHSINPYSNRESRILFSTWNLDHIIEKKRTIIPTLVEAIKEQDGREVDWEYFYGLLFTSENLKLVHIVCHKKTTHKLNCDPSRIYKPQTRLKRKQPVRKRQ
UniProt Q86Y56: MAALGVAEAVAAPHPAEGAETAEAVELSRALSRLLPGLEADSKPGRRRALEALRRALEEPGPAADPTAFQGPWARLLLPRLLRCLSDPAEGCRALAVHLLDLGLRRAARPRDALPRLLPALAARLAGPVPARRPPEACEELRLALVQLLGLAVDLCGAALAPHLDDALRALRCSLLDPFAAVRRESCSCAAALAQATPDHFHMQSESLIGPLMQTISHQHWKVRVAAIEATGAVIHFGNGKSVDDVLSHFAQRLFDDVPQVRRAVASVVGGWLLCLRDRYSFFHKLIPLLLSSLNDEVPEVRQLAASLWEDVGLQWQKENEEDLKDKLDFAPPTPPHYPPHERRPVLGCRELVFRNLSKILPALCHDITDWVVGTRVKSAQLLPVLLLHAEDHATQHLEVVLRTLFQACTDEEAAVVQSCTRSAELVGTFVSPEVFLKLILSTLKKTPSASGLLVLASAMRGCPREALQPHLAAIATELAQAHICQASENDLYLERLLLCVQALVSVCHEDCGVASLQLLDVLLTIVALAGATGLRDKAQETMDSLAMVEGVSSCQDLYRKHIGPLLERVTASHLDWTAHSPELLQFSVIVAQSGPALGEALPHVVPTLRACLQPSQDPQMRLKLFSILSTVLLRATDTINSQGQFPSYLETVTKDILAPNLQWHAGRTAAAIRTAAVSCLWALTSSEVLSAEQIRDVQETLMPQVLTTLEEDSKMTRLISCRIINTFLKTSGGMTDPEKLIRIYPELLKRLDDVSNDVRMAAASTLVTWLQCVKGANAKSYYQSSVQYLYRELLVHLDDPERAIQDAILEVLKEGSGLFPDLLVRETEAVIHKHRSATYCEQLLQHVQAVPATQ
UniProt Q86YN1: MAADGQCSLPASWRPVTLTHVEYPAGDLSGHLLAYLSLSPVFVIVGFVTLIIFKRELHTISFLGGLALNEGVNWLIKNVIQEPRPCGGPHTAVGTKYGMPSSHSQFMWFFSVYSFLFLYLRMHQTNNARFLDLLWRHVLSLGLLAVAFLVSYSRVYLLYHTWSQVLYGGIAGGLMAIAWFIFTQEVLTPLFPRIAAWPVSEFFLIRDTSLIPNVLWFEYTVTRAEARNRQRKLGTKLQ

Tests used:
Assay in all cases: log2 fold change, soluble protein after heating vs DMSO (PISA); higher = thermal stabilisation; K562 lysate, 10 uM; active = over 0.2 and 3.5 SD of the protein, either way, in both replicates (recomputed)
lapatinib = compound: CS(=O)(=O)CCNCc1ccc(-c2ccc3ncnc(Nc4ccc(OCc5cccc(F)c5)c(Cl)c4)c3c2)o1 [lapatinib]
Outline: (§1)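 Quantification was by TMTpro 16plex LC-MS/MS with equalised channel sums, applied to the supernatant after 21,000xg for 90 min. Samples were crude K562 extract at 1 mg/mL protein in PBS pH 7.4 with 1 mM MgCl2, treated with 10 μM compound for 30 min, heated for 3 min across 48°C-58°C, pooled and brought to 0.5% NP-40 at 4°C. Values are log-two fold changes in thermal stability relative to solvent controls, from duplicates.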

pictilisib = compound: CS(=O)(=O)N1CCN(Cc2cc3nc(-c4cccc5[nH]ncc45)nc(N4CCOCC4)c3s2)CC1 [pictilisib]
Outline: as §1

crizotinib = compound: C[C@@H](Oc1cc(-c2cnn(C3CCNCC3)c2)cnc1N)c1c(Cl)ccc(F)c1Cl [crizotinib]
Outline: as §1

[1] = compound: C[C@H](C1=CC=C(C=C1)C(=O)NC2=C3C=CNC3=NC=C2)N
Outline: as §1

duvelisib = compound: C[C@H](Nc1ncnc2nc[nH]c12)c1cc2cccc(Cl)c2c(=O)n1-c1ccccc1 [duvelisib]
Outline: as §1

gandotinib = compound: Cc1cc(Nc2cc(CN3CCOCC3)c3nc(C)c(Cc4ccc(Cl)cc4F)n3n2)n[nH]1 [gandotinib]
Outline: as §1

tozasertib = compound: Cc1cc(Nc2cc(N3CCN(C)CC3)nc(Sc3ccc(NC(=O)C4CC4)cc3)n2)n[nH]1 [tozasertib]
Outline: as §1

doramapimod = compound: Cc1ccc(-n2nc(C(C)(C)C)cc2NC(=O)Nc2ccc(OCCN3CCOCC3)c3ccccc23)cc1 [doramapimod]
Outline: as §1

bafetinib = compound: Cc1ccc(NC(=O)c2ccc(CN3CC[C@H](N(C)C)C3)c(C(F)(F)F)c2)cc1Nc1nccc(-c2cncnc2)n1 [bafetinib]
Outline: as §1

[2] = compound: Cc1cccc(CC(=O)N2CCc3c2ccc(-c2cn(C)c4ncnc(N)c24)c3F)n1
Outline: as §1

nilotinib = compound: Cc1cn(-c2cc(NC(=O)c3ccc(C)c(Nc4nccc(-c5cccnc5)n4)c3)cc(C(F)(F)F)c2)cn1 [nilotinib]
Outline: as §1

[3] = compound: Cc1nc(Nc2n[nH]c3c2CN(C(=O)N[C@H](CN(C)C)c2ccccc2)C3(C)C)c2sccc2n1
Outline: as §1

dasatinib = compound: Cc1nc(Nc2ncc(C(=O)Nc3c(C)cccc3Cl)s2)cc(N2CCN(CCO)CC2)n1 [dasatinib]
Outline: as §1

[4] = compound: Cc1ncc(-c2ccnc(Nc3ccc(S(C)(=O)=O)cc3)n2)n1C(C)C
Outline: as §1

[5] = compound: Cn1cc(-c2ccc3c(c2)CCN3C(=O)Cc2cccc(C(F)(F)F)c2)c2c(N)ncnc21
Outline: as §1

quisinostat = compound: Cn1cc(CNCC2CCN(c3ncc(C(=O)NO)cn3)CC2)c2ccccc21 [quisinostat]
Outline: as §1

tipifarnib = compound: Cn1cncc1[C@@](N)(c1ccc(Cl)cc1)c1ccc2c(c1)c(-c1cccc(Cl)c1)cc(=O)n2C [tipifarnib]
Outline: as §1

[6] = compound: NC(=O)Nc1cc(-c2cccc(F)c2)sc1C(=O)N[C@H]1CCCNC1
Outline: as §1

[7] = compound: NC(=O)c1cnc(N[C@@H]2CCCC[C@@H]2N)nc1Nc1cccc(-n2nccn2)c1
Outline: as §1

[8] = compound: NC1(c2ccc(-c3nc4ccn5c(=O)[nH]nc5c4cc3-c3ccccc3)cc2)CCC1
Outline: as §1

Measured: log2 fold change

DIDO1 (UniProt Q9BTC0)
inactive: lapatinib -0.005 | pictilisib -0.024 | crizotinib 0 | [1] 0.01 | duvelisib -0.019 | gandotinib 0.023 | tozasertib 0.03 | doramapimod -0.005 | bafetinib -0.189 | [2] 0.071 | nilotinib 0.041 | [3] -0.002 | dasatinib 0 | [4] 0.217 | [5] 0.005 | quisinostat -0.014 | tipifarnib -0.079 | [6] -0.011 | [7] -0.004 | [8] 0.063

DMD (UniProt P11532)
inactive: lapatinib -0.014 | pictilisib -0.021 | crizotinib -0.017 | [1] 0.031 | duvelisib -0.003 | gandotinib -0.001 | tozasertib -0.023 | doramapimod 0.007 | bafetinib -0.014 | [2] -0.003 | nilotinib -0.039 | [3] 0.011 | dasatinib -0.019 | [4] 0.001 | [5] 0.016 | quisinostat -0.017 | tipifarnib 0.016 | [6] -0.003 | [7] -0.012 | [8] 0.016

DIP2B (UniProt Q9P265)
inactive: lapatinib -0.005 | pictilisib -0.023 | crizotinib -0.026 | [1] -0.03 | duvelisib 0.004 | gandotinib 0.026 | tozasertib 0.008 | doramapimod -0.008 | bafetinib -0.047 | [2] 0 | nilotinib 0.017 | [3] -0.002 | dasatinib 0.027 | [4] 0.004 | [5] 0.02 | quisinostat -0.044 | tipifarnib 0.041 | [6] 0.013 | [7] -0.019 | [8] -0.021

DOCK7 (UniProt Q96N67)
inactive: lapatinib -0.003 | pictilisib -0.016 | crizotinib -0.022 | [1] -0.107 | duvelisib -0.004 | gandotinib -0.103 | tozasertib 0.047 | doramapimod 0.012 | bafetinib -0.032 | [2] 0.102 | nilotinib 0.005 | [3] -0.002 | dasatinib 0.01 | [4] -0.03 | [5] 0.029 | quisinostat -0.039 | tipifarnib -0.01 | [6] 0.048 | [7] 0.036 | [8] -0.062

DNAJC19 (UniProt Q96DA6)
inactive: lapatinib -0.042 | pictilisib -0.016 | crizotinib -0.047 | [1] -0.005 | duvelisib -0.03 | gandotinib -0.013 | tozasertib 0.02 | doramapimod 0.035 | bafetinib -0.038 | [2] 0.002 | nilotinib -0.012 | [3] -0.015 | dasatinib -0.017 | [4] 0.012 | [5] -0.014 | quisinostat 0.011 | tipifarnib 0.019 | [6] 0.011 | [7] -0.012 | [8] 0

DLG3 isoform 2 (UniProt Q92796)
inactive: lapatinib 0.008 | pictilisib 0.073 | crizotinib -0.01 | [1] -0.047 | duvelisib 0.125 | gandotinib 0 | tozasertib 0.097 | doramapimod 0.043 | bafetinib 0.055 | [2] 0.065 | nilotinib -0.036 | [3] 0.027 | dasatinib -0.062 | [4] 0.146 | [5] -0.004 | quisinostat -0.007 | tipifarnib 0.085 | [6] -0.03 | [7] -0.031 | [8] -0.049

Retrieved one by one from the list above (two):
DNAJC19 (UniProt Q96DA6)
inactive: lapatinib -0.042 | pictilisib -0.016 | crizotinib -0.047 | [1] -0.005 | duvelisib -0.03 | gandotinib -0.013 | tozasertib 0.02 | doramapimod 0.035 | bafetinib -0.038 | [2] 0.002 | nilotinib -0.012 | [3] -0.015 | dasatinib -0.017 | [4] 0.012 | [5] -0.014 | quisinostat 0.011 | tipifarnib 0.019 | [6] 0.011 | [7] -0.012 | [8] 0

DLG3 isoform 2 (UniProt Q92796)
inactive: lapatinib 0.008 | pictilisib 0.073 | crizotinib -0.01 | [1] -0.047 | duvelisib 0.125 | gandotinib 0 | tozasertib 0.097 | doramapimod 0.043 | bafetinib 0.055 | [2] 0.065 | nilotinib -0.036 | [3] 0.027 | dasatinib -0.062 | [4] 0.146 | [5] -0.004 | quisinostat -0.007 | tipifarnib 0.085 | [6] -0.03 | [7] -0.031 | [8] -0.049

Following part:

DNAJC6 isoform 2 (UniProt O75061)
inactive: lapatinib 0.018 | pictilisib 0.016 | crizotinib 0.054 | [1] -0.046 | duvelisib -0.027 | gandotinib 0.137 | tozasertib -0.043 | doramapimod 0.048 | bafetinib -0.032 | [2] 0.04 | nilotinib 0.001 | [3] 0.005 | dasatinib 0.024 | [4] 0.015 | [5] -0.024 | quisinostat -0.02 | tipifarnib -0.007 | [6] 0.008 | [7] -0.047 | [8] -0.011

DHX15 (UniProt O43143)
inactive: lapatinib -0.012 | pictilisib -0.011 | crizotinib 0.046 | [1] 0.007 | duvelisib 0.007 | gandotinib -0.017 | tozasertib -0.001 | doramapimod -0.026 | bafetinib -0.004 | [2] -0.012 | nilotinib 0 | [3] -0.015 | dasatinib 0.015 | [4] -0.008 | [5] -0.008 | quisinostat 0.071 | tipifarnib -0.006 | [6] -0.005 | [7] 0.01 | [8] -0.044

DNAAF2 (UniProt Q9NVR5)
inactive: lapatinib -0.007 | pictilisib 0 | crizotinib 0.036 | [1] 0.011 | duvelisib 0.03 | gandotinib 0.016 | tozasertib 0.053 | doramapimod 0.004 | bafetinib 0.017 | [2] 0 | nilotinib -0.022 | [3] 0.05 | dasatinib 0.005 | [4] 0.034 | [5] -0.017 | quisinostat -0.011 | tipifarnib -0.002 | [6] -0.011 | [7] 0.008 | [8] -0.012

DNAJB14 (UniProt Q8TBM8)
inactive: lapatinib -0.069 | pictilisib -0.032 | crizotinib -0.059 | [1] -0.008 | duvelisib 0.031 | gandotinib 0.033 | tozasertib 0.01 | doramapimod 0.078 | bafetinib 0.031 | [2] -0.11 | nilotinib 0.009 | [3] 0.068 | dasatinib 0.002 | [4] 0.046 | [5] -0.001 | quisinostat -0.065 | tipifarnib -0.035 | [6] 0.006 | [7] 0.051 | [8] -0.042

DNAJC17 (UniProt Q9NVM6)
inactive: lapatinib -0.005 | pictilisib 0.002 | crizotinib 0.022 | [1] 0.02 | duvelisib 0.016 | gandotinib 0.011 | tozasertib -0.032 | doramapimod 0.012 | bafetinib -0.05 | [2] 0.052 | nilotinib 0.023 | [3] -0.042 | dasatinib -0.055 | [4] -0.009 | [5] 0.042 | quisinostat -0.005 | tipifarnib 0.08 | [6] -0.042 | [7] 0.037 | [8] 0.024

DFFB (UniProt O76075)
inactive: lapatinib 0.003 | pictilisib -0.016 | crizotinib 0.023 | [1] 0.003 | duvelisib -0.008 | gandotinib 0.015 | tozasertib 0.049 | doramapimod -0.07 | bafetinib -0.028 | [2] -0.021 | nilotinib 0.192 | [3] -0.062 | dasatinib 0.008 | [4] 0.155 | [5] 0.012 | quisinostat 0.038 | tipifarnib -0.013 | [6] -0.049 | [7] 0.026 | [8] -0.047

DIABLO (UniProt Q9NR28)
inactive: lapatinib -0.009 | pictilisib -0.029 | crizotinib -0.001 | [1] -0.057 | duvelisib 0.033 | gandotinib 0.023 | tozasertib -0.001 | doramapimod 0.015 | bafetinib -0.044 | [2] 0.028 | nilotinib 0.018 | [3] -0.025 | dasatinib -0.019 | [4] 0.022 | [5] 0.019 | quisinostat -0.064 | tipifarnib 0.029 | [6] -0.006 | [7] -0.003 | [8] 0.017

DMXL2 isoform 3 (UniProt Q8TDJ6)
inactive: lapatinib -0.008 | pictilisib -0.138 | crizotinib -0.041 | [1] 0.001 | duvelisib -0.074 | gandotinib -0.044 | tozasertib 0.003 | doramapimod 0.06 | bafetinib -0.052 | [2] 0.003 | nilotinib -0.008 | [3] -0.021 | dasatinib -0.02 | [4] -0.031 | [5] 0.104 | quisinostat -0.05 | tipifarnib -0.037 | [6] 0.073 | [7] 0.009 | [8] -0.023

DNAAF5 (UniProt Q86Y56)
inactive: lapatinib -0.03 | pictilisib -0.008 | crizotinib -0.104 | [1] 0.016 | duvelisib 0.021 | gandotinib -0.147 | tozasertib -0.055 | doramapimod 0.024 | bafetinib -0.066 | [2] 0.027 | nilotinib -0.015 | [3] 0.004 | dasatinib -0.118 | [4] -0.024 | [5] 0.007 | quisinostat -0.1 | tipifarnib -0.002 | [6] 0.073 | [7] 0.006 | [8] 0.024

DOLPP1 (UniProt Q86YN1)
inactive: lapatinib 0.034 | pictilisib 0.082 | crizotinib -0.055 | [1] 0.046 | duvelisib -0.029 | gandotinib -0.028 | tozasertib -0.022 | doramapimod -0.004 | bafetinib -0.124 | [2] 0.168 | nilotinib -0.111 | [3] 0.023 | dasatinib 0.084 | [4] -0.087 | [5] -0.01 | quisinostat -0.043 | tipifarnib -0.074 | [6] -0.024 | [7] -0.021 | [8] -0.044
